“Also recorded” adds a separate entry of the source. For at least one compound, name, drawing or mass did not settle the structure. Some compounds share one wording; it may come from a single statement.
Tests used:
SW1353 cells [1] = assay: Suppression of cell proliferation of chondrosarcoma cell line SW1353 (CCK-8); type: cell-based, human; settings: drug at various concentrations
Source text: (§1) The H-EMC-SS cells were obtained from the Riken BioResource Center. As the SW1353 cells, those obtained from ATCC were used.

[2] = tested on: cultured cells of giant cell tumor of tendon sheath (GCTT); assay: Suppression of cell proliferation of GCTT cultured cells (CCK-8); type: cell-based, human; settings: drug at various concentrations, CCK-8 24 hours after addition
[3] = tested on: cultured cells of pigmented villonodular synovitis (PVNS); assay: Suppression of cell proliferation of PVNS cultured cells (CCK-8); type: cell-based, human; settings: drug at various concentrations, CCK-8 24 hours after addition
SW1353 cells [4] = assay: Cell invasion of SW1353 cells (Matrigel Invasion Chamber); type: cell-based, human; settings: for suppression of cell invasion of SW1353 cells at highest concentration: 100 μM troglitazone or 50 μM celecoxib; for suppression of cell invasion of SW1353 cells at highest concentration / suppression of cell invasion of SW1353 cells: 24 hours; for cell injury seen in microphotographs of invaded cells: 100 μM troglitazone, 50 μM celecoxib or 400 μM zaltoprofen, cells only sparsely existed and rolled into small balls; for suppression of cell invasion of SW1353 cells: all set concentrations, concentration-dependent
Source text: For the analysis of cell invasion, Matrigel™ Invasion Chamber (BD Bioscience, catalog number 354480), which uses Matrigel as the matrix, was used. […] FIGS. 76 and 77 show microphotographs of invaded cells fixed by immersion into a 4% paraformaldehyde solution, and stained with hematoxylin (magnification is 200 times). From the microphotographs of FIGS. 76 and 77, the patterns of the invaded cells can be understood.

H-EMC-SS cells [5] = assay: Suppression of cell proliferation of chondrosarcoma cell line H-EMC-SS (CCK-8); type: cell-based, human; settings: drug at various concentrations
Source text: The H-EMC-SS cells were obtained from the Riken BioResource Center.
as §1

SW1353 cells [6] = assay: Cell migration of human chondrosarcoma cell line SW1353; type: cell-based; settings: all set concentrations, concentration-dependent; 72 hours
Protocol: The analysis of cell migration was performed by using a 6-well plate of TPP according to the method described in Takeuchi A, et al., Cancer Science, 104:740-749, 2013 (Low molecular weight heparin suppresses receptor for advanced glycation end products-mediated expression of malignant phenotype in human fibrosarcoma cells). Cells of the human chondrosarcoma cell line, SW1353, were cultured in the same manner as that of Example 1 until they became sub-confluent, and the cells were delaminated in a width of 1 mm using a micropipette tip (200 μl). […] Then, area of the cells migrated to the region where the cells were delaminated was measured by using Image J software (http://rsb.info.nih.gov/ij/index.html) (FIGS. 73 and 74).

[7] = tested on: GCTB cultured cells (case 1, case 2; GCT-1, GCT-2); assay: Suppression of cell proliferation of GCTB cultured cells (Cell Counting Kit-8, WST assay); type: cell-based, human; settings: drug at various concentrations, CCK-8 24 hours after addition
Protocol: Tissue Int., 75:71-77), repeatedly subcultured until there were only spindle-shaped cells, which state was gradually attained from the state that there were also multinucleated giant cells observed in an early stage, and then used for the following analysis. […] Zaltoprofen was added as a solution in DMSO (dimethyl sulfoxide) prepared at a concentration 1000 times higher than the final concentration, and the solution was added in a volume of 0.1% of the volume of the medium. The same shall apply to the other drugs used in the following examples. […]

colon cancer = settings: cited from earlier work
H-EMC-SS cells [8] = settings: inventors' earlier reports; cited from earlier work
H-EMC-SS cells [9] = settings: inventors' earlier reports; cited from earlier work; remark: listed apart in the source
H-EMC-SS cells [10] = assay: Caspase 3 staining of chondrosarcoma cell line H-EMC-SS (apoptosis); type: cell-based, human; settings: zaltoprofen 200 μM, troglitazone 100 μM or pioglitazone 200 μM, compared with control
Protocol: Further, in the same manner as that of Example 1, cells of the chondrosarcoma cell line were subjected to caspase 3 staining, and presence or absence of apoptosis was analyzed (FIGS. 46 and 47).

[11] = tested on: PPARγ expression in H-EMC-SS cells; settings: inventors' earlier reports; cited from earlier work
[12] = tested on: PPARγ expression in H-EMC-SS cells; assay: PPARγ immunostaining of chondrosarcoma cell line H-EMC-SS; type: cell-based, human; settings: zaltoprofen 200 μM, troglitazone 100 μM or pioglitazone 200 μM
OUMS-27 cells [13] = assay: Suppression of proliferation of human chondrosarcoma cell line OUMS-27 (CCK-8); type: cell-based; settings: 72 hours
OUMS-27 cells [14] = assay: Proliferation of OUMS-27 cells cultured beforehand with or without GW9662; type: cell-based, human; settings: GW9662 1 μM, 60 minutes beforehand
Protocol: Cells of the human chondrosarcoma cell line, OUMS-27, were cultured in the same manner as that of Example 1 until they became sub-confluent, then GW9662 (Sigma Aldrich, M6191), which is an irreversible antagonist of PPARγ, was added to the cells at a final concentration of 1 μM, and the cells were cultured for 60 minutes.

[15] = tested on: PPARγ expression in GCTB cultured cells; settings: GCTB derived from a patient; inventors' earlier reports; cited from earlier work
[16] = tested on: synovial cells derived from rheumatism patients; settings: cited from earlier work
[17] = tested on: PPARγ expression in cells of giant cell tumor of tendon sheath (GCTT); assay: PPARγ immunostaining of GCTT cells; type: cell-based, human; settings: zaltoprofen 400 μM or troglitazone 200 μM
[18] = tested on: PPARγ expression in cells of pigmented villonodular synovitis (PVNS); assay: PPARγ immunostaining of PVNS cells; type: cell-based, human; settings: zaltoprofen 400 μM or troglitazone 200 μM
[19] = tested on: GCTB cultured cells (case 1, case 2; GCT-1, GCT-2); settings: GCTB derived from a patient; inventors' earlier reports; cited from earlier work

Row | Compound | suppression of cell proliferation (absorbance at 450 nm) (SW1353 cells [1]) | suppression of cell proliferation (absorbance at 450 nm) [2] | suppression of cell proliferation (absorbance at 450 nm) [3] | suppression of cell invasion of SW1353 cells at highest concentration (SW1353 cells [4]) | cell injury seen in microphotographs of invaded cells (SW1353 cells [4]) | suppression of cell invasion of SW1353 cells (SW1353 cells [4]) | suppression of cell proliferation (absorbance at 450 nm) (H-EMC-SS cells [5]) | suppression of cell migration of SW1353 cells (SW1353 cells [6]) | suppression of cell proliferation (live cell count, absorbance at 450 nm) [7] | suppression of proliferation of H-EMC-SS cells (H-EMC-SS cells [8]) | apoptosis in H-EMC-SS cells (H-EMC-SS cells [9]) | expression of PPARγ in H-EMC-SS cells [11] | expression of PPARγ (PPARγ-positive images) [12] | cell proliferation-suppressing action after preincubation with GW9662 (OUMS-27 cells [14]) | other results
1 | Cc1ccc(-c2cc(C(F)(F)F)nn2-c2ccc(S(N)(=O)=O)cc2)cc1 [celecoxib] | suppressed proliferation | suppressed proliferation | suppressed proliferation | completely suppressed | cell injury was realized | suppressed the cell invasion | suppressed proliferation | suppressed the cell migration | suppressed proliferation |  |  |  |  |  | occurrence of colon cancer (colon cancer; induced by repetitive administration of 1,2-dimethylhydrazine dihydrochloride to rats): prevented occurrence of colon cancer; amount of NF-κB protein in the large intestine (colon cancer; rats): reduced amount of NF-κB protein; amount of the PPARγ protein (colon cancer; rats): increased amount of the PPARγ protein
2 | CCc1ccc(CCOc2ccc(CC3SC(=O)NC3=O)cc2)nc1 (centres unmarked) [pioglitazone] | suppressed proliferation | suppressed in a pioglitazone concentration-dependent manner; also recorded: suppressed proliferation | suppressed in a pioglitazone concentration-dependent manner; also recorded: suppressed proliferation |  |  | suppressed the cell invasion | cell proliferation was suppressed | suppressed the cell migration | suppressed in a pioglitazone concentration-dependent manner; also recorded: suppressed proliferation | suppress proliferation | induced apoptosis | promoted expression of PPARγ | expression of PPARγ could be confirmed |  | caspase 3-positive ratio (H-EMC-SS cells [10]): increased
3 | CN(CCOc1ccc(CC2SC(=O)NC2=O)cc1)c1ccccn1 (centres unmarked) [rosiglitazone] |  |  |  |  |  | suppressed the cell invasion |  | suppressed the cell migration |  |  |  |  |  | reduced by GW9662 | suppression of proliferation of OUMS-27 cells (OUMS-27 cells [13]; at a concentration of 50 μM or higher (50-400 μM tested)): suppressed
4 | Cc1c(C)c2c(c(C)c1O)CCC(C)(COc1ccc(CC3SC(=O)NC3=O)cc1)O2 (centres unmarked) [troglitazone] | suppressed proliferation | cell proliferation was suppressed | cell proliferation was suppressed | completely suppressed | cell injury was realized | suppressed the cell invasion | cell proliferation was suppressed | suppressed the cell migration | suppressed in a drug concentration-dependent manner; also recorded: suppressed proliferation | suppress proliferation | induced apoptosis | promoted expression of PPARγ | expression of PPARγ could be confirmed | reduced by GW9662 | expression of PPARγ in the cells of giant cell tumor of bone [15]: promoted expression of PPARγ; suppression of proliferation of OUMS-27 cells (OUMS-27 cells [13]; at concentrations of 200 μM and 400 μM (50-400 μM tested)): suppressed proliferation; activation of PPARγ [16]: activated PPARγ; apoptosis [16]: caused apoptosis; suppression of proliferation of the cells [16]: suppress proliferation; expression of PPARγ (PPARγ-positive images) [17]: expression of PPARγ was successfully observed; expression of PPARγ (PPARγ-positive images) [18]: expression of PPARγ was successfully observed; suppression of proliferation of cells of giant cell tumor of bone [19]: suppressed proliferation
